Assay results: PubChem BioAssay AID320 (DTP/NCI, 2004)
The list does not hold the whole screen: it gathers tests that were run many times, whatever their T/C, doses with no T/C, and many T/C values between a quarter and a half above the control. Further doses and runs are listed elsewhere. T/C: endpoint of the treated group in % of that of the vehicle group. Some entries give survivors of the animals treated and no T/C: the source files T/C as zero there, which appears to mark a toxic dose or a test without result, not a measured value. Some doses without a T/C left all or most animals alive at the check, yet need not have been tolerated: survival well below the control is almost never listed, so the zero probably covers shortened survival too. Survivors were counted at the toxicity check, usually on the fifth day, unless a day is given; later deaths do not show. Schedules are NCI's codes, taken here to give the interval after Q, in days (D) or hours (H), and the number of doses after X. Some entries were tested several times; the results are listed from low to high. Where survival is the endpoint, the PubChem record calls one and a half times the control and up active, and a quarter to a half above the control has no call in these data; cut-offs in other NCI protocols can differ.

System: BDF1 mice, P329 reticulum cell sarcoma ip, survival T/C
Assay: NCI In Vivo Anticancer Drug Screen. Data for tumor model P329 Reticulum Cell Sarcoma (intraperitoneal) in B6D2F1 (BDF1) mice
Conditions: T/C endpoint: median survival time, higher T/C = longer survival
Description: The antitumor activity of compounds was measured in mice bearing transplantable tumors. Survival or tumor size were measured and the results are expressed as the measurement made in the treated group (T) divided by the measurement made in the vehicle treated control group (C). The tumor model used in this assay is P329 Reticulum Cell Sarcoma (intraperitoneal) in B6D2F1 (BDF1) mice

[1] = dose: 120.0 mg/kg/injection, schedule: Q01DX010 (ip), vehicle: saline
[2] = dose: 32.0 mg/kg/injection, schedule: Q01DX010 (ip), vehicle: saline
[3] = dose: 64.0 mg/kg/injection, schedule: Q01DX010 (ip), vehicle: saline
[4] = dose: 2.5 mg/kg/injection, schedule: Q01DX010 (ip), vehicle: saline
[5] = dose: 5.0 mg/kg/injection, schedule: Q01DX010 (ip), vehicle: saline
[6] = dose: 10.0 mg/kg/injection, schedule: Q01DX010 (ip), vehicle: saline
[7] = dose: 20.0 mg/kg/injection, schedule: Q01DX010 (ip), vehicle: saline
[8] = dose: 3.13 mg/kg/injection, schedule: Q01DX010 (ip), vehicle: saline

N#CCSc1ncnc2nc[nH]c12
T/C (dose: 30.0 mg/kg/injection, schedule: Q01DX010 (ip), vehicle: saline): 134 % of control
survivor count [1]: 5 of 6
survivor count (dose: 240.0 mg/kg/injection, schedule: Q01DX010 (ip), vehicle: saline): 6 of 6

c1ccc(CNc2ncnc3[nH]ncc23)cc1
T/C (dose: 16.0 mg/kg/injection, schedule: Q01DX010 (ip), vehicle: saline): 130 % of control
survivor count [2]: 6 of 6
survivor count [3]: 6 of 6

N#[N+]c1cnc([O-])[nH]c1=O
T/C [4]: 137 % of control
T/C [5]: 140 % of control
T/C [6]: 137 % of control
survivor count [7]: 0 of 6

CC[n+]1c(-c2ccccc2)c2cc(N)ccc2c2ccc(N)cc21
T/C [4]: 130 % of control
T/C [5]: 135 and 138 % of control
T/C [6]: 125 and 146 % of control
survivor count [7]: 6 of 6

N=[N+]=CC(=O)OCC(N)C(=O)O (stereo not drawn)
T/C [8]: 138 and 145 % of control

CO[C@@H]1[C@@H](OC2OC(C)C(OC3CC(C)(O)C(OC(=O)CC(C)C)C(C)O3)C(N(C)C)C2O)[C@@H](CC=O)C[C@@H](C)C(=O)/C=C/C2O[C@H]2C[C@@H](C)OC(=O)C[C@H]1OC(C)=O (stereo partly drawn)
survivor count (dose: 600.0 mg/kg/injection, schedule: Q01DX010 (ip), vehicle: saline): 7 of 7

C[C@]12C=CC(=O)C=C1CC[C@@H]1[C@@H]2C(=O)C[C@@]2(C)[C@H]1CC[C@]2(O)C(=O)CO
survivor count (dose: 25.0 mg/kg/injection, schedule: Q01DX010 (sc), vehicle: steroid suspending solution): 6 of 6
survivor count (dose: 50.0 mg/kg/injection, schedule: Q01DX010 (sc), vehicle: steroid suspending solution): 6 of 6
survivor count (dose: 100.0 mg/kg/injection, schedule: Q01DX010 (sc), vehicle: steroid suspending solution): 6 of 6
survivor count (dose: 200.0 mg/kg/injection, schedule: Q01DX010 (sc), vehicle: steroid suspending solution): 5 of 6 and 6 of 6

COc1ccc2c(c1OC)C(=O)O[C@@H]2[C@H]1c2c(cc3c(c2OC)OCO3)CCN1C
survivor count (dose: 7.8 mg/kg/injection, schedule: Q01DX010 (ip), vehicle: saline): 6 of 6
survivor count (dose: 15.6 mg/kg/injection, schedule: Q01DX010 (ip), vehicle: saline): 6 of 6
survivor count (dose: 31.3 mg/kg/injection, schedule: Q01DX010 (ip), vehicle: saline): 5 of 6

O=NN(CCCl)C(=O)NCCCl
T/C [8]: 146 % of control
T/C (dose: 12.5 mg/kg/injection, schedule: Q01DX010 (ip), vehicle: saline): 129 % of control
survivor count (dose: 25.0 mg/kg/injection, schedule: Q01DX010 (ip), vehicle: saline): 5 of 6 and 6 of 6

CN(C)c1ccc(Nc2c3ccccc3nc3ccccc23)cc1
T/C (dose: 36.0 mg/kg/injection, schedule: Q01DX010 (ip), vehicle: saline): 138 % of control
T/C (dose: 54.0 mg/kg/injection, schedule: Q01DX010 (ip), vehicle: saline): 128 and 142 % of control
T/C (dose: 80.0 mg/kg/injection, schedule: Q01DX010 (ip), vehicle: saline): 142 % of control
survivor count [1]: 4 of 6

NC(Cc1ccc(N(CCCl)CCCl)cc1)C(=O)O (stereo not drawn)
T/C [4]: 142 % of control
survivor count [7]: 5 of 6

CS(=O)(=O)OCC(O)C(O)C(O)C(O)COS(C)(=O)=O (stereo not drawn)
T/C (dose: 400.0 mg/kg/injection, schedule: Q01DX010 (ip), vehicle: saline): 130 % of control

O=C(Nc1ccc(C2=NCCN2)cc1)c1ccc(C(=O)Nc2ccc(C3=NCCN3)cc2)c([N+](=O)[O-])c1
T/C (dose: 12.0 mg/kg/injection, schedule: Q01DX010 (ip), vehicle: saline): 133 and 142 % of control
survivor count (dose: 18.0 mg/kg/injection, schedule: Q01DX010 (ip), vehicle: saline): 6 of 6

Cn1cnc([N+](=O)[O-])c1Sc1nc(N)nc2nc[nH]c12
T/C [5]: 139 % of control
survivor count [7]: 6 of 6

Nc1nc(SCc2ccccc2)c2[nH]cnc2n1
T/C [2]: 128 % of control
survivor count [3]: 6 of 6

Nc1nc(N)c2nc(CNc3ccc(C(=O)NC(CCC(=O)O)C(=O)O)cc3)cnc2n1 (stereo not drawn)
T/C (dose: 0.2 mg/kg/injection, schedule: Q01DX010 (ip), vehicle: other): 146 % of control
survivor count (dose: 0.4 mg/kg/injection, schedule: Q01DX010 (ip), vehicle: other): 6 of 6

CO[C@H](C(=O)[C@@H](O)[C@@H](C)O)[C@@H]1Cc2cc3cc(OC4CC(OC5CC(O)C(O)C(C)O5)C(O)C(C)O4)c(C)c(O)c3c(O)c2C(=O)[C@H]1OC1CC(OC2CC(OC3CC(C)(O)C(O)C(C)O3)C(O)C(C)O2)C(O)C(C)O1 (stereo partly drawn)
survivor count (dose: 0.25 mg/kg/injection, schedule: Q01DX010 (ip), vehicle: saline): 0 of 10
survivor count (dose: 2.0 mg/kg/injection, schedule: Q01DX010 (ip), vehicle: saline): 4 of 10
